Holding throughout (assay): co-IP
In assay [1] the target is T1, myc-tagged full length Sunday Driver (Syd/dJIP3/4) (Drosophila) (UniProt Q9GQF1).
T1 sequence: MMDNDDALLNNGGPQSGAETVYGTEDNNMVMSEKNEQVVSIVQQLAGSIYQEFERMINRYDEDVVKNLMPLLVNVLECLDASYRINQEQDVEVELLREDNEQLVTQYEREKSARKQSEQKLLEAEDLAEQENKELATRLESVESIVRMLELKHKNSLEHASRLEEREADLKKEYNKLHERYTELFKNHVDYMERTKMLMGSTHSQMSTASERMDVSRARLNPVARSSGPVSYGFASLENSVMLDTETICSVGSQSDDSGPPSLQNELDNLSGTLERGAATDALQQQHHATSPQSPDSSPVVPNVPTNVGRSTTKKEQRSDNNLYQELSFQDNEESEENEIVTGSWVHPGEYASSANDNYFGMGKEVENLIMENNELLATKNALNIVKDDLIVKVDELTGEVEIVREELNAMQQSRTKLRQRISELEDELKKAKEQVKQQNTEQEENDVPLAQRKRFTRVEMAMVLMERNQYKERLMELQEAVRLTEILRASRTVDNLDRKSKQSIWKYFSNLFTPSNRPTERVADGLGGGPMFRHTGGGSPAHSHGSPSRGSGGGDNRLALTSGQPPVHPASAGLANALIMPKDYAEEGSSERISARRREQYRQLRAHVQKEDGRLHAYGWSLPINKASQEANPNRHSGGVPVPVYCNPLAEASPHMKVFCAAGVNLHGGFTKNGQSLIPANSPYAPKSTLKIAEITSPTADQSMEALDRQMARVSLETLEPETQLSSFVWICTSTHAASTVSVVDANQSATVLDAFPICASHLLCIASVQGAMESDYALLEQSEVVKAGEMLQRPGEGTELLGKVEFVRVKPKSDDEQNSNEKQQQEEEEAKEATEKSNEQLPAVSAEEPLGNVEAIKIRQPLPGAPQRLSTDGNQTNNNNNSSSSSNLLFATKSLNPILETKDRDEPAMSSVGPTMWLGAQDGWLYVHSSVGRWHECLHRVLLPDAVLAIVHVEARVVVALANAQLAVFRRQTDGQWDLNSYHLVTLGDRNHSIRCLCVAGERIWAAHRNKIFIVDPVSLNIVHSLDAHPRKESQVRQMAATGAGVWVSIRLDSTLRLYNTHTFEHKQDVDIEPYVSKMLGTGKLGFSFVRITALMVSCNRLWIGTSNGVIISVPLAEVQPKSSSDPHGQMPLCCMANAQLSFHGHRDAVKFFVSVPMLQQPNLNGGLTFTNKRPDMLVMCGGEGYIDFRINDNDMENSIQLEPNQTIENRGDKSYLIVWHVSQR

Sequences of proteins named here, by UniProt entry; tags and fusion partners are left off. A change or cut given only in a name is not applied to a line headed by its entry.
UniProt P46824, whole entry: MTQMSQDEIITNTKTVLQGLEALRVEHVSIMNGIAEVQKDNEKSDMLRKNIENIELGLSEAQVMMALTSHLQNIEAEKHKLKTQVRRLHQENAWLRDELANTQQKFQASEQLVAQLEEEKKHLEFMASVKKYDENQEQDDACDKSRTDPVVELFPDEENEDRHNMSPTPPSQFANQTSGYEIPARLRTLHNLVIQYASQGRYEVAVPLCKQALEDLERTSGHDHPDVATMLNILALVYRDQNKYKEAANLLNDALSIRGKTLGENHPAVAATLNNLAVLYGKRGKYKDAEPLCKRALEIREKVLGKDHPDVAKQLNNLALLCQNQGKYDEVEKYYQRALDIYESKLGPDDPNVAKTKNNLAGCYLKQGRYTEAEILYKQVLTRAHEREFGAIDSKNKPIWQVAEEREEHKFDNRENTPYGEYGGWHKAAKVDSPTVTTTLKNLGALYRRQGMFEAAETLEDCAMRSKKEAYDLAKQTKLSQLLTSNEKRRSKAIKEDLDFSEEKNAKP

In assay [2] the target is T2, myc-tagged truncated N2-Syd (Syd 1-529) (Drosophila) (UniProt Q9GQF1).
T2 sequence: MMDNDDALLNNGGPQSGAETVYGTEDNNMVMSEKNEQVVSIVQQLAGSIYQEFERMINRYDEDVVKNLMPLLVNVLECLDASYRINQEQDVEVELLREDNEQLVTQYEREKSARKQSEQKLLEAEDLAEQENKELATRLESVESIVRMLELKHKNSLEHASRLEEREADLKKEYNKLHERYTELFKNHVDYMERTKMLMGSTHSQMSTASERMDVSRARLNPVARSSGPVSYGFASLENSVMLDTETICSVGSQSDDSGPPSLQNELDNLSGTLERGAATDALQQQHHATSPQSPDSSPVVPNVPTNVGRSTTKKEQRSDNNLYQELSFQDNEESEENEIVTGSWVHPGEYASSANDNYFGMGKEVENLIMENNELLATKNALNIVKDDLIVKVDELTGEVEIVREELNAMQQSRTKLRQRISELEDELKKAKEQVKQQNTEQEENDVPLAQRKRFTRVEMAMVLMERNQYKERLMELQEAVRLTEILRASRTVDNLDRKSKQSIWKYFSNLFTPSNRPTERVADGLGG

In assay [3] the target is T3, myc-tagged dNischarin (CG11807) (Drosophila) (UniProt Q7K490).
T3 sequence: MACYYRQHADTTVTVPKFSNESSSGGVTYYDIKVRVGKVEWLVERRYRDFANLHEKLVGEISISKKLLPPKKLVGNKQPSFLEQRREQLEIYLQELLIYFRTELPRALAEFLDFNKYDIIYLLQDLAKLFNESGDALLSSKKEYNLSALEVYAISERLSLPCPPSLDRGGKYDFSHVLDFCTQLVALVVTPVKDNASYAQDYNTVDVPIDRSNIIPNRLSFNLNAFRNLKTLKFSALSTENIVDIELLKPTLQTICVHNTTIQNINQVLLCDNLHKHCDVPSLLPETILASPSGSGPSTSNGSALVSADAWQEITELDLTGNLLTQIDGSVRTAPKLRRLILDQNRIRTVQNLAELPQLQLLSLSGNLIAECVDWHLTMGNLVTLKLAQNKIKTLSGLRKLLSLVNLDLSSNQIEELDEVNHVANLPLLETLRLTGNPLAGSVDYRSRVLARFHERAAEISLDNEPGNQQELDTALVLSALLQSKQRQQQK

Assay [4] addresses HA-tagged wild type Rab2 (Drosophila) (UniProt O18333).
Assay [5] deals with HA-tagged GTP-locked, constitutively active Rab2 Q65L (Drosophila) (UniProt O18333).

Drawing on article doi:10.1101/2025.05.28.656585, this text covers binding for four molecules.

No constants are given. Whether binding was seen depends on the method and setting. Binding seen in cells or lysates may run through a third protein. Some entries that bind do so weakly or less than the wild type. Where a sequence is shown, tags or fusion partners need not be part of it.

Regarding “HA-tagged GTP-locked, constitutively active Rab2 Q65L (from UniProt O18333 1-213)”, the results for the binding entry in assay [1], in assay [2] and in assay [3] were “binds”, “binds” and “binds weakly”, respectively.
As for “FLAG-tagged kinesin-1 light chain (Klc) (from UniProt P46824 1-508)”, in assay [2], the binding result is reported as “binds”.

B1: myc-tagged full length Sunday Driver (Syd/dJIP3/4) (protein, UniProt Q9GQF1 1-1227)
chain: MMDNDDALLNNGGPQSGAETVYGTEDNNMVMSEKNEQVVSIVQQLAGSIYQEFERMINRYDEDVVKNLMPLLVNVLECLDASYRINQEQDVEVELLREDNEQLVTQYEREKSARKQSEQKLLEAEDLAEQENKELATRLESVESIVRMLELKHKNSLEHASRLEEREADLKKEYNKLHERYTELFKNHVDYMERTKMLMGSTHSQMSTASERMDVSRARLNPVARSSGPVSYGFASLENSVMLDTETICSVGSQSDDSGPPSLQNELDNLSGTLERGAATDALQQQHHATSPQSPDSSPVVPNVPTNVGRSTTKKEQRSDNNLYQELSFQDNEESEENEIVTGSWVHPGEYASSANDNYFGMGKEVENLIMENNELLATKNALNIVKDDLIVKVDELTGEVEIVREELNAMQQSRTKLRQRISELEDELKKAKEQVKQQNTEQEENDVPLAQRKRFTRVEMAMVLMERNQYKERLMELQEAVRLTEILRASRTVDNLDRKSKQSIWKYFSNLFTPSNRPTERVADGLGGGPMFRHTGGGSPAHSHGSPSRGSGGGDNRLALTSGQPPVHPASAGLANALIMPKDYAEEGSSERISARRREQYRQLRAHVQKEDGRLHAYGWSLPINKASQEANPNRHSGGVPVPVYCNPLAEASPHMKVFCAAGVNLHGGFTKNGQSLIPANSPYAPKSTLKIAEITSPTADQSMEALDRQMARVSLETLEPETQLSSFVWICTSTHAASTVSVVDANQSATVLDAFPICASHLLCIASVQGAMESDYALLEQSEVVKAGEMLQRPGEGTELLGKVEFVRVKPKSDDEQNSNEKQQQEEEEAKEATEKSNEQLPAVSAEEPLGNVEAIKIRQPLPGAPQRLSTDGNQTNNNNNSSSSSNLLFATKSLNPILETKDRDEPAMSSVGPTMWLGAQDGWLYVHSSVGRWHECLHRVLLPDAVLAIVHVEARVVVALANAQLAVFRRQTDGQWDLNSYHLVTLGDRNHSIRCLCVAGERIWAAHRNKIFIVDPVSLNIVHSLDAHPRKESQVRQMAATGAGVWVSIRLDSTLRLYNTHTFEHKQDVDIEPYVSKMLGTGKLGFSFVRITALMVSCNRLWIGTSNGVIISVPLAEVQPKSSSDPHGQMPLCCMANAQLSFHGHRDAVKFFVSVPMLQQPNLNGGLTFTNKRPDMLVMCGGEGYIDFRINDNDMENSIQLEPNQTIENRGDKSYLIVWHVSQR
For the molecule B1, the binding result in assay [4] and in assay [5] was “binds” each time.

B2: myc-tagged truncated N2-Syd (Syd 1-529) (domain or fragment, UniProt Q9GQF1 1-529)
chain: MMDNDDALLNNGGPQSGAETVYGTEDNNMVMSEKNEQVVSIVQQLAGSIYQEFERMINRYDEDVVKNLMPLLVNVLECLDASYRINQEQDVEVELLREDNEQLVTQYEREKSARKQSEQKLLEAEDLAEQENKELATRLESVESIVRMLELKHKNSLEHASRLEEREADLKKEYNKLHERYTELFKNHVDYMERTKMLMGSTHSQMSTASERMDVSRARLNPVARSSGPVSYGFASLENSVMLDTETICSVGSQSDDSGPPSLQNELDNLSGTLERGAATDALQQQHHATSPQSPDSSPVVPNVPTNVGRSTTKKEQRSDNNLYQELSFQDNEESEENEIVTGSWVHPGEYASSANDNYFGMGKEVENLIMENNELLATKNALNIVKDDLIVKVDELTGEVEIVREELNAMQQSRTKLRQRISELEDELKKAKEQVKQQNTEQEENDVPLAQRKRFTRVEMAMVLMERNQYKERLMELQEAVRLTEILRASRTVDNLDRKSKQSIWKYFSNLFTPSNRPTERVADGLGG
For B2, the binding entry in assay [4] and in assay [5] was “binds” in each case.
